Measurements from paper PMC8537452.
These are yes or no findings as the source states them, for the method shown. A result given as binding can be weak or reduced; the word gives no strength.

Molecular target: T1, C6-2 fragment of the CTL of rat Cav1.3L (rat)
T1 sequence: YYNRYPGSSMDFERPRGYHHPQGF
Assay: two-hybrid; Matchmaker GAL4 system, yeast AH109; Cav1.3 fragments as bait in pGBKT7, Snapin2 as prey (rat brain cDNA library clone in pACT2); blue colonies on high-stringent SD medium lacking Ade, His, Leu and Trp with X-alpha-Gal

binding: binds
Substance: rat Snapin2
